Assay results taken from US20100322862A1.
No constants are given. Whether binding was seen depends on the method and setting. Some entries that bind do so weakly or less than the wild type.

Protein sequences, listed by entry. Tags and fused reporters are not part of them. Residues count along the entry.
UniProt O14786, residues 22-923: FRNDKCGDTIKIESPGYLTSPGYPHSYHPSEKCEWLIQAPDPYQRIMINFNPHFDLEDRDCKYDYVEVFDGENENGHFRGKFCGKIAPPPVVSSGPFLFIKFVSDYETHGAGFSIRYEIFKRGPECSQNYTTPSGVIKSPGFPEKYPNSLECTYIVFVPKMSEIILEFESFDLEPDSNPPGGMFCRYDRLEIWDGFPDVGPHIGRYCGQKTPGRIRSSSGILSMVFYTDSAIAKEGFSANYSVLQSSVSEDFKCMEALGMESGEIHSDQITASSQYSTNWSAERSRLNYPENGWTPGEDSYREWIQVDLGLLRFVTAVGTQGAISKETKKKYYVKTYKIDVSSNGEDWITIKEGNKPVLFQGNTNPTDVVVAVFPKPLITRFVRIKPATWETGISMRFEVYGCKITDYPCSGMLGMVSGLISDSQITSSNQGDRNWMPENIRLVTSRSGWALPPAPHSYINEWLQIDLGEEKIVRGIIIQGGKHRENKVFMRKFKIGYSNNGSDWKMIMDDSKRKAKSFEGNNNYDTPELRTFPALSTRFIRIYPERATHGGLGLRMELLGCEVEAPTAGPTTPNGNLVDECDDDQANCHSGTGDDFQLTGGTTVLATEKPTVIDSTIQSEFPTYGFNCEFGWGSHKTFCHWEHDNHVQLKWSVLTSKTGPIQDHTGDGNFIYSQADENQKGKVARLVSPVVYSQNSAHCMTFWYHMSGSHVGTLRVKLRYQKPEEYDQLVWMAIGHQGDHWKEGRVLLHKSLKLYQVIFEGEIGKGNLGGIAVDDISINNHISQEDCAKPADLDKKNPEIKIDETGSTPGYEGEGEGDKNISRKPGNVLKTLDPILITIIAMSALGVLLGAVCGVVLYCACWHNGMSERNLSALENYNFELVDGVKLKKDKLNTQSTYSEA

Legend:
[1] = biological target: NRP-1 (130-kDa protein from PPC-1 tumor extracts) (UniProt O14786); assay: affinity chromatography of PPC-1 tumor extracts on immobilised RPARPAR, elution with free peptide; confirmed by immunoblotting
[2] = biological target: wild type NRP-1 expressed in M21 melanoma cells (UniProt O14786); assay: phage binding to M21 melanoma cells transfected with NRP-1

Binder	binding [1]	binding [2]
RPARPAR [RPARPAR peptide]	binds	
RPARPAR (peptide, bacteriophage T7, not shown: large carriers) [RPARPAR phage (T7 phage displaying RPARPAR at the C-terminus of the major coat protein gp10)]		binds
